Data as given in PubChem BioAssay AID743121 (NCATS, 2013).
The deposit covers about 26,000 reagents; shown is a part drawn at random. Over the whole deposit, 167 (0.63%) got an active call. 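Calls are per gene from RSA p-values that are not deposited; an individual active-marked siRNA can sensitise only weakly.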 Entries without a mark were called inactive. The numbers tell different reagents against one gene apart. Further read-outs or replicates are left out here.

Aim: 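Genes whose silencing strengthens cell killing by camptothecin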 (primary screen)
Cells: MDA-MB-231 cells, a human breast cancer line
Knock-down reagent: single siRNA against human genes, 20 nM siRNA (0.8 pmol per well)
Timing: 120 h (drug added 48 h after transfection, read 72 h later)
Treatment: camptothecin 20 nM (about EC30) for 72 h; vehicle 0.1% DMSO in parallel plates
Read-out: 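Cell viability by ATP luminescence (CellTiter-Glo) as % of non-targeting siRNA wells, and the log2 ratio of viability without drug over viability with camptothecin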
Scale: log2 vehicle/camptothecin viability: higher = stronger sensitisation to camptothecin
Active means: 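Active genes have an RSA gene-level p-value below 0.001, computed from the ratios of their separate siRNAs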

Against DOT1L (DOT1 like histone lysine methyltransferase) #1, the values are log2 vehicle/camptothecin viability -0.0484.
Against DOT1L (DOT1 like histone lysine methyltransferase) #2, the entry reads log2 vehicle/camptothecin viability -0.0501.
DOT1L (DOT1 like histone lysine methyltransferase) #3 scored log2 vehicle/camptothecin viability 0.0351.
DOT1L (DOT1 like histone lysine methyltransferase) #4 scored log2 vehicle/camptothecin viability -0.352.
With knock-down of CYBB (cytochrome b-245 beta chain) #1, the record shows log2 vehicle/camptothecin viability -0.183.
With knock-down of CYBB (cytochrome b-245 beta chain) #2, the screen gave log2 vehicle/camptothecin viability 0.471.
Against CYBB (cytochrome b-245 beta chain) #3, the entry reads log2 vehicle/camptothecin viability -0.326.
Depletion of CYBB (cytochrome b-245 beta chain) #4 resulted in: log2 vehicle/camptothecin viability -0.408.
Silencing of SDCBP (syndecan binding protein) #1 came out at: log2 vehicle/camptothecin viability -0.0635.
SDCBP (syndecan binding protein) #2 gave log2 vehicle/camptothecin viability -0.277.
Against SDCBP (syndecan binding protein) #3, the entry reads log2 vehicle/camptothecin viability -0.154.

Reformatted: 3 of the entries above
{"target gene": "CYBB (cytochrome b-245 beta chain)", "reagent no.": 3, "log2 vehicle/camptothecin viability": -0.326}
{"target gene": "CYBB (cytochrome b-245 beta chain)", "reagent no.": 4, "log2 vehicle/camptothecin viability": -0.408}
{"target gene": "SDCBP (syndecan binding protein)", "reagent no.": 1, "log2 vehicle/camptothecin viability": -0.0635}

The listing continues:
Against DIAPH2 (diaphanous related formin 2) #1, the entry reads log2 vehicle/camptothecin viability -0.168.
DIAPH2 (diaphanous related formin 2) #2 gave log2 vehicle/camptothecin viability -0.0497.
After knock-down of DIAPH2 (diaphanous related formin 2) #3, the record shows log2 vehicle/camptothecin viability -0.31.
DIAPH2 (diaphanous related formin 2) #4 showed log2 vehicle/camptothecin viability -0.224.
After knock-down of ATOH1 (atonal bHLH transcription factor 1) #1, the screen gave log2 vehicle/camptothecin viability -0.129.
ATOH1 (atonal bHLH transcription factor 1) #2 scored log2 vehicle/camptothecin viability -0.0991.
ATOH1 (atonal bHLH transcription factor 1) #3 scored log2 vehicle/camptothecin viability -0.0408.
Silencing of ATOH1 (atonal bHLH transcription factor 1) #4 gave: log2 vehicle/camptothecin viability -0.0225.
Against CLEC12A (C-type lectin domain family 12 member A) #1 the deposit lists log2 vehicle/camptothecin viability -0.299.
CLEC12A (C-type lectin domain family 12 member A) #2 gave log2 vehicle/camptothecin viability 0.552.
After knock-down of CLEC12A (C-type lectin domain family 12 member A) #3, the screen gave log2 vehicle/camptothecin viability 0.215.
For CLEC12A (C-type lectin domain family 12 member A) #4, the values are log2 vehicle/camptothecin viability -0.105.
Knock-down of HAL (histidine ammonia-lyase) #1 gave: log2 vehicle/camptothecin viability -0.499.
HAL (histidine ammonia-lyase) #2 scored log2 vehicle/camptothecin viability -0.311.
Against HAL (histidine ammonia-lyase) #3, the values are log2 vehicle/camptothecin viability -0.238.
Depletion of HAL (histidine ammonia-lyase) #4 resulted in: log2 vehicle/camptothecin viability -0.119.
